In the supplement of paper PMC12889115:
Some of the results follow. These are raw signals, not scaled to a control.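 First-pass screen: polymyxin B was added at a level that permeabilizes the Salmonella outer membrane while sparing the inner membrane. DMSO wells, with and without polymyxin B, defined maximum growth. Because plates differed from one another, each plate's data were ranked separately and the compounds with the lowest OD600 were carried forward as hits.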

Tested on: Salmonella enterica serovar Typhimurium SL1344
Test: bacterial growth OD600 after 18 h with compound and polymyxin B; higher = more bacterial growth (less inhibition)
Settings: 50 µM, Mueller-Hinton broth

SMILES	bacterial growth OD600 (polymyxin B 1 µg/mL)	bacterial growth OD600 (polymyxin B 0.75 µg/mL)
CCOC(=O)CNC(=O)N1CCCC(C(=O)c2cccc(C(F)(F)F)c2)C1 (stereo not given)	0.87	–
O=C(CCC1CCCN(C(=O)CN2CCOC2=O)C1)N1CCN(Cc2ccccc2)CC1 (stereo not given)	1.24	–
CN1CCN([C@@H]2CCN(Cc3ccc(C4CCCC4)s3)C[C@H]2O)CC1	–	0.766
COc1ccccc1Oc1ncccc1CNC(=O)Cn1cncn1	0.897	–
CC(C)[C@H]1CN(C)CCN1C(=O)c1csc2nc(-c3ccc(Cl)cc3)cn12	0.909	–
CC(C)(C)c1cc(CNC(=O)C2CCC(=O)N(CCc3ccccn3)C2)n[nH]1 (stereo not given)	1.07	–
CSCC(=O)NC1CC(=O)N(CCc2cccc(Cl)c2)C1 (stereo not given)	0.902	–
CCc1ccc(CN2CCC(CCC(=O)Nc3ccc(OC)cc3OC)CC2)o1	1.21	–
CN(Cc1ccccc1)C(=O)CCC1CCN(S(=O)(=O)c2cccs2)CC1	0.903	–
O=C(C1CCCC1)N1CCCC(CCc2ccccc2)C1 (stereo not given)	–	0.091
COc1cc2nc(N(C)C)c(CNCCc3ccccc3F)cc2c(OC)c1OC	–	0.835
COc1ccc(CCN2CCC(CN(C)Cc3cccc(C(C)=O)c3)CC2)cc1	0.78	–
COC(=O)C1CCN(CC2(O)CCCN(Cc3cccc(C)c3)C2=O)CC1 (stereo not given)	0.884	–
O=C(NCC1CCCN(c2ncccn2)C1)c1coc(CN2CCc3ccccc3C2)n1 (stereo not given)	0.68	–
Fc1ccccc1CN1CCCC(NCC2CC2)C1 (stereo not given)	–	0.861
O=C(NCc1ccon1)c1coc(CN2CCN(Cc3ccccc3)CC2)n1	0.991	–
Cc1occc1C(=O)N(C)C(Cc1ccccc1)C1CCN(C(=O)C2COc3ccccc3O2)CC1 (stereo not given)	–	0.006
CCCS(=O)(=O)N1CCC(C2CCN(Cc3cccnc3)CC2)C1 (stereo not given)	–	0.916
O=C(c1cc(COc2ccccc2F)[nH]n1)N1CCCCC1c1cccnc1 (stereo not given)	0.889	–
CCC(CC)N1C[C@H]2OC(=O)N(CCc3ccc(OC)cc3)[C@H]2C1	1.07	–
CC(=O)c1cccc(OCc2cc(C(=O)NC3CCOC(C)(C)C3)n[nH]2)c1 (stereo not given)	0.929	–
O=C1O[C@@H]2CN(c3ccc(C(F)(F)F)cn3)C[C@@H]2N1CCN1CCCCC1	0.805	–
O=C(Cc1ccc(N2CCC(NCCc3ccncc3)CC2)cc1)NCc1ccccc1	–	0.758
CCc1nc(C)ccc1OCC(=O)N1CCCC(CO)(CCOc2ccccc2)C1 (stereo not given)	–	0.788
COc1ccc(CN2CCC(C(Cc3ccccc3Cl)N(C)C(=O)c3ccco3)CC2)cc1 (stereo not given)	–	0.9
CSCCC(=O)N1CCc2ccc(NC(=O)CCc3ccc(C)cc3)cc2C1	1.08	–
COc1ccc(OC2CCN(C(=O)C3CC3)CC2)c(C(=O)NCCC2=CCCCC2)c1	0.013	–
CO[C@H]1[C@H](NC(=O)c2ccco2)c2ccccc2C12CCN(Cc1c[nH]nc1C1CCCCC1)CC2	–	0.827
CCCCNC(=O)C1CCCN(c2nc(C)c3ccc(OC)cc3n2)C1 (stereo not given)	–	0.738
COc1ccc(Cl)cc1NC(=O)CCC1CCCN(C(=O)Cn2cccn2)C1 (stereo not given)	0.864	–

Record cards, as listed above. Values in the order: bacterial growth OD600 (polymyxin B 1 µg/mL) | bacterial growth OD600 (polymyxin B 0.75 µg/mL)
CC(=O)c1cccc(OCc2cc(C(=O)NC3CCOC(C)(C)C3)n[nH]2)c1 (stereo not given) as listed: 0.929 | –
COc1ccc(CN2CCC(C(Cc3ccccc3Cl)N(C)C(=O)c3ccco3)CC2)cc1 (stereo not given) as listed: – | 0.9
